Assay results reported in patent US6451802B1, “S-oxide lipid lowering compounds” (Janssen Pharmaceutica N.V., priority 1998, dated 2002).

Experiment: Plasma levels in a clinical trial on human volunteers
Type: in vivo
Conditions: single 200 mg dose of compound A; for share of the total pharmacological activity, compounds 1, 2 and 3 together: one value for the three compounds combined
Text: Plasma levels of compounds 1, 2 and 3 and of compound A have been measured in a clinical trial on human volunteers.

## CCC(C)n1ncn(-c2ccc(N3CCN(c4ccc(OCC5COC(C[S+]([O-])c6nncn6C)(c6ccc(Cl)cc6)O5)cc4)CC3)cc2)c1=O (single isomer, unassigned) [Compound 3, [2S-[2α(B),4α(S*)]]-4-[4-[4-[4-[[2-(4-chlorophenyl)-2-[[(4-methyl-4H-1,2,4-traizol-3yl]sulfinyl]methyl]-1,3-dioxolan-4-yl]methoxy]phenyl]-1-piperazinyl]Phenyl-2,4-dihydro-2-(1-methylpropyl)-3H-1,2,4-traizol-3-one]
  share of the total pharmacological activity, compounds 1, 2 and 3 together: 71.4%

## CC[C@@H](C)n1ncn(-c2ccc(N3CCN(c4ccc(OC[C@@H]5CO[C@@](CSc6nncn6C)(c6ccc(Cl)cc6)O5)cc4)CC3)cc2)c1=O [compound A, (−)-[2S-[2α,4α(S*)]]-4-[4-[4-[4-[[-2-(4-chlorophenyl)-2-[[(4-methyl-4H-1,2,4-triazol-3-yl)thio]methyl]-1,3-dioxolan-4-yl]methoxy]phenyl]-1-piperazinyl]phenyl]-2,4-dihydro-2-(1-methylpropyl)-3H-1,2,4-triazol-3-one, reference compound]
Taking into account the pharmacological activity of each compound
  share of the total pharmacological activity: 28.6%

## CCC(C)n1ncn(-c2ccc(N3CCN(c4ccc(OCC5COC(C[S+]([O-])c6nncn6C)(c6ccc(Cl)cc6)O5)cc4)CC3)cc2)c1=O (single isomer, unassigned) [Compound 2]
  share of the total pharmacological activity, compounds 1, 2 and 3 together: 71.4%

## CCC(C)n1ncn(-c2ccc(N3CCN(c4ccc(OC[C@@H]5CO[C@@](CS(=O)(=O)c6nncn6C)(c6ccc(Cl)cc6)O5)cc4)CC3)cc2)c1=O (relative stereo) [Compound 1, [2S-[2α,4α(S*)]]-4-[4-[4-[4-[[2-(4-chloropheny)-2-[[(4-methyl-4H-1,2,4-triazol-3-yl)sulfonyl]methyl]-1,3-dioxlan-4-yl]methoxy]phenyl]-1-piperazinyl]phenyl]-2,4-dihydro-2-(1-methylpropyl)-3H-1,2,4-triazol-3-one]
  share of the total pharmacological activity, compounds 1, 2 and 3 together: 71.4%
